Experimental data: PubChem BioAssay (NCATS)
Inconclusive results, whose numbers are uncertain, are shown with a selection of clear calls. Potencies of inconclusive entries are doubtful fits and often do not repeat. Calls of active or inactive are those of the source. Calls follow the shape of the dose curve; as a rule, active = well fitted cell-killing curve with a large enough effect; inconclusive = small, poorly fitted or top-dose-only effect; inactive = flat fitted curve, though single readings scatter.

Test: SW1088 Cancer Cell Toxicity qHTS against the NCATS CANVASS Library (AID 1347350); also: nearly all actives have a fitted effect of over 75% in size
Conditions: SW1088 viability, CellTiter-Glo luminescence, 72 h; series mostly up to 38.3 µM; activity change, negative = cytotoxicity: at the top concentration
Excerpt: Natural products and their derivatives continue to be wellsprings of nascent therapeutic potential. However, many laboratories have limited resources for biological evaluation, leaving their previously isolated or synthesized compounds largely or completely untested. To address this issue, the Canvass library of natural products was assembled (https://tripod.nih.gov/canvass), in collaboration with academic and industry researchers, for quantitative high-throughput screening (qHTS) across a diverse set of cell-based and biochemical assays. The pure (>85% purity by liquid chromatography/mass spectrometry [LC/MS]) Canvass library of 346 natural products were submitted by 45 academic laboratories and companies around the world. We collected pure natural products to circumvent deconvolution and structure elucidation due to time and resource limitations. The library was formatted into 1536-well plates and evaluated in 50 qHTS (in an 11-pnt concentration series) bioassays with broad scope of disease-relevant mechanisms. The resulting data set from 50 different assays was then systematically analyzed to identify overall trends and specific natural products with interesting biological activities. Reported herein are the results of each individual qHTS and their corresponding assay protocol. National Center for Advancing Translational Sciences (NCATS), Rockville, MD National Institute of Health (NIH), Bethesda, Maryland
Cancer Cell Toxicity protocol for cell lines COV-362, OV-KATE, OV-SAHO, UWB1.289, UWB1.289-WTBRCA1, HEK-293, HPAF-II, Panc-1005, SW1088, or U-118MG. 1. In a 1536 well, white solid bottom tissue culture plates (Corning 7494), corresponding cells (COV-362, OV-KATE, OV-SAHO, UWB1.289, UWB1.289-WTBRCA1, HEK-293, HPAF-II, Panc-1005, SW1088, or U-118MG) were dispensed in each well at a final concentration of 1000 cells / well (6uL volume) using the Multidrop Combi (Thermo Fisher Scientific) dispenser. 2. The plates were incubated for 4 hours at 37 degrees C/5% CO2/95% Rh. 3. Compounds were pin transferred (~23nL volume) via Wako Pin-tool (Wako Automation, Richmond VA) equipped with a 1536 pin head. The assay plates were treated with compounds in an 11-pnt concentration series with a final concentration range of […] to 85uM. 4. Bortezomib was used as a single dose control (0.5mM column 4, rows 1 - 32) at a final concentration of 1.9uM and as a 16pnt titration (1mM; 1:2 dilution; 16-points; n = 2; column 3, rows 1 - 32) with final concentration range of 0.1nM - 3.8uM. 5. The assay plates were incubated for 72 hours at 37 degrees C/5% CO2/95% Rh. 6. 3uL CellTiter-Glo detection reagent was then added to the plates (columns 2 - 48, rows 1 - 32) and incubated at room temperature for additional 15min. 7. Luminescence signal was acquired via the ViewLux plate reader (PerkinElmer) using a clear filter, 2 second exposure and 2x binning settings.
% is scaled to controls: 0 for no effect and ±100 for the full control effect; potency is read from the fitted curve at half-maximal effect.

SMILES | Potency | activity change, negative = cytotoxicity | outcome
CCC(=O)N[C@@H](C[C@H](C)C(Cl)(Cl)Cl)C(=O)N1C(=O)C=C(OC)[C@@H]1C[C@H](C)C(Cl)Cl | inconclusive: 29.8 µM [cytotoxic, single point] |  | 
CNCCc1c[nH]c2ccccc12 | inconclusive: 13.3 µM [cytotoxic, partial curve] |  | 
CC[N@@+]1([O-])C[C@]2(C)CC[C@@H](O)[C@@]34C5C[C@H]6CC[C@@]5(C(C[C@H]23)C41)[C@H](O)[C@@]6(O)CO (stereo partly drawn) |  | inactive: -5.77% | 
C=C(C)[C@H]1C(=O)c2c3c(cc4c5c(n1c24)[C@@]1(C)[C@@H](CC[C@H]2[C@](C)(/C=C/C=C(\C)C(=O)O)[C@@H](O)CC[C@@]21C)C5)C1=CC(C)(C)OC(C)(C)[C@H]1[C@@H]3O | active: 5.95 µM |  | 
C=C[C@H]1CN2CCc3c([nH]c4cccc(OC)c34)[C@@H]2C[C@@H]1/C(=C\OC)C(=O)OC | inconclusive: 29.8 µM [cytotoxic, single point] |  | 
CC[C@H]1CN2CCc3c([nH]c4cccc(OC)c34)[C@@H]2C[C@@H]1/C(=C\OC)C(=O)OC | inconclusive: 29.8 µM [cytotoxic, single point] |  | 
CO[C@H]1C[C@H](O[C@H]2[C@@H](O)C[C@H](O[C@H]3CC[C@]4(C=O)[C@H]5CC[C@]6(C)C(C7=CC(=O)OC7)CC[C@]6(O)[C@@H]5CC[C@]4(O)C3)O[C@@H]2C)O[C@H](C)[C@H]1O[C@H]1C[C@@H](OC)[C@@H](O[C@@H]2O[C@H](CO)[C@@H](O)[C@H](O)[C@H]2O)[C@@H](C)O1 (stereo partly drawn) | inconclusive: 0.266 µM [cytotoxic, full curve] |  | 
CC[C@@H]1CN2CCc3c([nH]c4cccc(OC)c34)[C@@H]2C[C@@H]1/C(=C\OC)C(=O)OC | inconclusive: 23.7 µM [cytotoxic, single point] |  | 
CC[C@@H]1CN2CC[C@@]3(O)C(=Nc4cccc(OC)c43)[C@@H]2C[C@@H]1/C(=C\OC)C(=O)OC | inconclusive: 26.6 µM [cytotoxic, single point] |  | 
CO[C@H]([C@@H](C)[C@H]1O[C@]1(C)C[C@H](C)/C=C/C=C(\C)[C@H]1O[C@@H](CC(=O)O)CC[C@@H]1C)[C@@H](C)O |  | inactive: -22.4% | 
C=CC(C)(C)[C@@]12C[C@H]3C(=O)N/C(=C\c4cnc[nH]4)C(=O)N3[C@@H]1Nc1ccccc12 |  | inactive: -9.59% | 
C[C@]12CC(O)C3[C@@H](CC[C@@H]4C[C@@H](O)CC[C@]34CO)[C@@]1(O)CC[C@@H]2C1=CC(=O)OC1 (stereo partly drawn) | inconclusive: 13.3 µM [cytotoxic, partial curve, poor fit] |  | 
C[C@@H]1CC[C@@H](c2ccoc2)N2C[C@@]3(CC[C@@H]12)CS[C@@]1(CC[C@H]2[C@H](C)CC[C@@H](c4ccoc4)N2[C@@H]1O)C3 | inconclusive: 29.8 µM [cytotoxic, single point] |  | 
CO[C@@]12c3c(C)cc(O)c4c(=O)occ(c34)C(=O)[C@@H]1[C@]13COC(=O)c4c(O)cc(C)c(c41)C(=O)[C@H]2[C@@H]3OC(C)=O | active: 18.8 µM |  | 
C/C=C1/CN2CC[C@@]34c5ccccc5N(C)[C@@H]3[C@@H]2C[C@@H]1[C@H]4C(=O)OC | inconclusive: 29.8 µM [cytotoxic, partial curve, poor fit] |  | 
COc1ccc2[nH]cc(CCN)c2c1 |  | inactive: -4.64% | 
CC1=CC(=O)C2=C(C)C[C@H](O)[C@@H]3[C@H](OC(=O)[C@@H]3C)[C@@H]12 |  | inactive: -0.308% | 
CC1=CC2CC[C@@H]3[C@@H](C)C[C@H](C)[C@@H](C1)N23 (stereo partly drawn) |  |  | inactive
C[C@]12CC(O)C3[C@@H](CCC4C[C@@H](O)CC[C@@]43CO)[C@@]1(O)CC[C@@H]2C1=CC(=O)OC1 (stereo partly drawn) |  | inactive: -14.4% | 
CO[C@H]1[C@H](O[C@H]2CC[C@]3(C=O)[C@H]4CC[C@]5(C)[C@@H](C6=CC(=O)OC6)CC[C@]5(O)[C@@H]4CC[C@]3(O)C2)O[C@H](C)[C@H](O)[C@@H]1OC | inconclusive: 4.73 µM [cytotoxic, partial curve] |  | 
C[C@]12CCC3[C@@H](CC[C@@H]4C[C@@H](O)CC[C@]34CO)[C@@]1(O)CC[C@@H]2C1=CC(=O)OC1 (stereo partly drawn) | inconclusive: 4.73 µM [cytotoxic, full curve] |  | 
CCCCC1CC[C@H]2CCCC(CCC)N12 (stereo partly drawn) |  | inactive: 1.91% | 
CCC[C@H]1CC[C@H]2[C@H](C)CCC[C@H]2N1 |  | inactive: -16.1% | 
C/C(=C\[C@H](C)C(=O)C[C@H](O)CC1CC(=O)NC(=O)C1)[C@@H]1OC(=O)/C=C/CC/C=C/C=C/[C@@H]1C | inconclusive: 1.19 µM [cytotoxic, full curve] |  | 
CCCCC[C@@H]1OC(=O)[C@@H](C)N(C)C(=O)[C@H](CCCCC)OC(=O)C(C)N(C)C(=O)[C@H](CCCCC)OC(=O)[C@@H](C)N(C)C(=O)[C@H](CCCCC)OC(=O)C(C)N(C)C1=O (stereo partly drawn) | active: 6.68 µM |  | 
COc1ccc(C23Oc4cc(OC)cc(OC)c4[C@](O)([C@H](c4ccccc4)C2C(=O)NCCCCNC(=O)c2ccccc2)[C@@H]3O)cc1 (stereo partly drawn) |  | inactive: -6.86% | 
c1ccc2c3c([nH]c2c1)CNCC3 | active: 26.6 µM |  | 
C=C1[C@@H](C)[C@H]2[C@H](Cc3ccccc3)NC(=O)[C@]23OC(=O)/C=C/[C@H](O)CCC[C@@H](C)C/C=C/[C@H]3[C@@H]1O | inconclusive: 4.21 µM [cytotoxic, partial curve] |  | 

Gathered by group: the compounds so far containing an NH in an aromatic ring
SMILES | Potency | activity change, negative = cytotoxicity | outcome
CNCCc1c[nH]c2ccccc12 | inconclusive: 13.3 µM [cytotoxic, partial curve] |  | 
C=C[C@H]1CN2CCc3c([nH]c4cccc(OC)c34)[C@@H]2C[C@@H]1/C(=C\OC)C(=O)OC | inconclusive: 29.8 µM [cytotoxic, single point] |  | 
CC[C@H]1CN2CCc3c([nH]c4cccc(OC)c34)[C@@H]2C[C@@H]1/C(=C\OC)C(=O)OC | inconclusive: 29.8 µM [cytotoxic, single point] |  | 
CC[C@@H]1CN2CCc3c([nH]c4cccc(OC)c34)[C@@H]2C[C@@H]1/C(=C\OC)C(=O)OC | inconclusive: 23.7 µM [cytotoxic, single point] |  | 
C=CC(C)(C)[C@@]12C[C@H]3C(=O)N/C(=C\c4cnc[nH]4)C(=O)N3[C@@H]1Nc1ccccc12 |  | inactive: -9.59% | 
COc1ccc2[nH]cc(CCN)c2c1 |  | inactive: -4.64% | 
c1ccc2c3c([nH]c2c1)CNCC3 | active: 26.6 µM |  | 
